Laboratory results from the supplement of paper PMC9454738.
Counter-ions that a name gives are not always drawn. ± gives the standard deviation of the averaged measurements. The list shows a part of the results. Single values are uncertain here, since repeats match poorly.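 Test systems: triple-negative MDA-MB-231 breast cancer cells and their brain-metastatic MDA-MB-231BRM derivative, each stably carrying empty vector, full-length GLI1 or truncated tGLI1. Viability after 48 h was read by CellTiter-Blue and expressed against 1% DMSO vehicle. A compound was tGLI1-selective if it lowered viability 20% more in tGLI1 cells than in vector and GLI1 cells.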

tested on: MDA-MB-231 GLI1; test: cell viability relative to vehicle (DMSO) control (fraction); higher = more viable cells (less growth inhibition); details: 0.05 µM; treatment time 48 h

Row | SMILES | cell viability
1 | CN(C)CCOc1ccc(-c2nc(-c3ccncc3)c(-c3ccc4c(c3)CC/C4=N\O)[nH]2)cc1 | 1.32
2 | O=C1NC(=O)/C(=C/c2cccc(C(F)(F)F)c2)S1 | 2.22
3 | C=CC(=O)Nc1ccc2ncnc(Nc3cccc(Br)c3)c2c1 | 1.3
4 | COc1cc(F)c(F)c(Nc2ccc(I)cc2F)c1NS(=O)(=O)C1(C[C@H](O)CO)CC1 [Refametinib (RDEA119, Bay 86-9766)] | 1.24
5 | Cc1cc(CN2CCN(c3c(Br)cnc4nc(-c5ccc(N6CCN(C)CC6)cc5)[nH]c34)CC2)no1 | 1.18
6 | Cc1cc(F)c(Nc2ncnc3cc(OCc4ccccc4)ccc23)cc1O | 0.909
7 | CN1CCC(CNc2ccc3ncc(-c4cccc(OC(F)(F)F)c4)n3n2)CC1 [SGI-1776 free base] | 1.41
8 | COc1cc(OC)c(/C=C/S(=O)(=O)Cc2ccc(OC)c(NCC(=O)O)c2)c(OC)c1 | 1.36
9 | COc1ncc(-c2ccc3nccc(-c4ccnnc4)c3c2)cc1NS(=O)(=O)c1ccc(F)cc1F | 0.669
10 | S=C(NCc1ccc2c(c1)OCO2)N1CCN(c2ncnc3c2oc2ccccc23)CC1 [Amuvatinib (MP-470)] | 0.698
11 | OCCn1cc(-c2cnc3nnn(Cc4ccc5ncccc5c4)c3n2)cn1 | 1.33
12 | Cc1c(NC(=O)c2ccc(C(C)(C)C)cc2)cccc1-c1cn(C)c(=O)c(Nc2ccc(C(=O)N3CCOCC3)cc2)n1 | 1.4

same assay, conditions: 0.5 µM; treatment time 48 h

Row | SMILES | cell viability
13 | C[C@H]1[C@H](C)CC[C@]2(C(=O)O)CC[C@]3(C)C(=CC[C@@H]4[C@@]5(C)C[C@@H](O)[C@H](O)[C@@](C)(CO)[C@@H]5CC[C@]43C)[C@H]12 [Asiatic Acid] | 1.17
14 | O=C1NC(=O)C(c2ccccc2[N+](=O)[O-])=C1Nc1ccc(O)c(Cl)c1 | 1.22
15 | Cc1c(Cn2c(C)nc3c(C(=O)O)cc(N4CCOCC4)cc32)cccc1C(F)(F)F | 1.64
16 | Cc1ccc(NC(=O)c2ccc(CN3CCN(C)CC3)cc2)cc1Nc1nccc(-c2cccnc2)n1 [Imatinib (STI571)] | 1.38
17 | CCC(=O)NCC[C@@H]1CCc2ccc3c(c21)CCO3 [Ramelteon (TAK-375)] | 1.15
18 | NC(=O)Nc1cc(-c2cccc(F)c2)sc1C(=O)N[C@H]1CCCNC1 | 0.182
19 | COc1cc2ncnc(Oc3ccc(CC(=O)Nc4cnn(C(C)C)c4)cc3)c2cc1OC | 1.67
20 | CC(C)(C)NS(=O)(=O)c1cncc(-c2cc(F)c3nc(N)nn3c2)c1 | 1.27
21 | O=C(Nc1cc(C(F)(F)F)cc(C(F)(F)F)c1)c1cc(Cl)ccc1O | 0.647
22 | CN1CCC(COc2cnc(-c3cccc(Cn4nc(-c5cccc(C#N)c5)ccc4=O)c3)nc2)CC1 | 1.72
23 | CC(C)CC(=O)Nc1n[nH]c2c1CN(C(=O)C1CCN(C)CC1)C2(C)C | 1.28
24 | COc1cc2ncc(-c3ccccc3)nc2cc1OC [Tyrphostin AG 1296] | 1.94
25 | C1=N/C2=N/c3ccc(OCCN4CCCC4)c(c3)COC/C=C/COCc3cccc(c3)C(=C1)N2 [Pacritinib (SB1518)] | 1.02
26 | O=C(NCCO)c1cccc(-c2cc(Nc3ccc(OC(F)(F)F)cc3)ncn2)c1 | 3.11
27 | N#CC(=C(/N)Sc1ccccc1N)/C(C#N)=C(\N)Sc1ccccc1N | 1.68
28 | CN(C)Cc1cccc(N/C(=C2\C(=O)Nc3cc(C(N)=O)ccc32)c2ccccc2)c1 | 1.38
29 | C[C@@H](CN1CC(=O)NC(=O)C1)N1CC(=O)NC(=O)C1 [Dexrazoxane Hydrochloride] | 1.02
30 | COc1ccc(-c2ccc3ncc4c(c3c2)n(-c2ccc(N3CCNCC3)c(C(F)(F)F)c2)c(=O)n4C)cn1 | 0.133
31 | CC(C)(C)c1cnc(CSc2cnc(NC(=O)C3CCNCC3)s2)o1 | 0.274
32 | Cc1c(F)cc(C(=O)NC2CC2)cc1-c1ccc(C(=O)NCC(C)(C)C)cn1 | 2
33 | CCCC1O[C@@H]2C[C@H]3[C@@H]4CCC5=CC(=O)C=C[C@]5(C)[C@H]4[C@@H](O)C[C@]3(C)[C@]2(C(=O)CO)O1 (some centres not stated) [Budesonide] | 1.03
34 | C[C@@H](Oc1cc(-c2cnn(C3CCNCC3)c2)cnc1N)c1c(Cl)ccc(F)c1Cl | 1.23 ± 0.43
35 | O=C1NC(=O)/C(=C/c2ccc3nccc(-c4ccncc4)c3c2)S1 | 0.476
36 | Cc1ccc2nc(NCCN)c3ncc(C)n3c2c1 | 3.19
37 | CC(=O)[C@]1(O)Cc2c(O)c3c(c(O)c2[C@@H](O[C@H]2C[C@H](N)[C@H](O)[C@H](C)O2)C1)C(=O)c1ccccc1C3=O [Idarubicin HCl] | -0.199

A second format for some results above.
CC(C)(C)c1cnc(CSc2cnc(NC(=O)C3CCNCC3)s2)o1
  cell viability: 0.274
Cc1c(F)cc(C(=O)NC2CC2)cc1-c1ccc(C(=O)NCC(C)(C)C)cn1
  cell viability: 2
CCCC1O[C@@H]2C[C@H]3[C@@H]4CCC5=CC(=O)C=C[C@]5(C)[C@H]4[C@@H](O)C[C@]3(C)[C@]2(C(=O)CO)O1 (some centres not stated) [Budesonide]
  cell viability: 1.03
